From patent publication US11149031B2, “Substituted N-(3-fluoropropyl)-pyrrolidine compounds, processes for their preparation and therapeutic uses thereof” (SANOFI, priority 2016, dated 2021)

Amino acid sequences for entries named in this document (tags omitted).
UniProt P03372, whole entry: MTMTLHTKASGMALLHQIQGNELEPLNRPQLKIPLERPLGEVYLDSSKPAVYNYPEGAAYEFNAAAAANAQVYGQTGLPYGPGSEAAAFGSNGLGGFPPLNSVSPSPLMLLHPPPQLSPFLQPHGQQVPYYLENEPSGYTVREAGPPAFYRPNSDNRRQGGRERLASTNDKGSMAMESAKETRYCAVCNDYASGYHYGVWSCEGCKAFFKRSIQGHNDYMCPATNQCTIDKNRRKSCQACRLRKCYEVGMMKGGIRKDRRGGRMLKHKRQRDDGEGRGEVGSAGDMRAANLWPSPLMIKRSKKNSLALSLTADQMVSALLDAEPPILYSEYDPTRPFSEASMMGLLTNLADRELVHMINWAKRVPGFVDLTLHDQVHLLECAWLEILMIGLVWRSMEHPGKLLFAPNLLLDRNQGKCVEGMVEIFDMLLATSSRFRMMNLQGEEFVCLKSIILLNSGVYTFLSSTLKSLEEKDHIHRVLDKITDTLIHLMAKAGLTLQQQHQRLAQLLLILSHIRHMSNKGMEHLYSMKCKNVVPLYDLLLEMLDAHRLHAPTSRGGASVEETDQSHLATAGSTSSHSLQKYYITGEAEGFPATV

Target: ERα in MCF7 cells (Homo sapiens (Human), UniProt P03372)
Experiment: Test C: estrogen receptor degradation activity, ERα in cell western assay in MCF7 cells
Format: cell-based
Conditions: 4 hours post compound addition, read-out: Degradation IC50
Protocol: Test C: Estrogen Receptor Degradation Activity
Test C involves measuring the in vitro degradation activity of the compounds of the invention.
The measurements of the degradation activities were made using abreast cancer cell ERα in cell western assay as described hereunder.
MCF7 cells (ATCC) were seeded in 384 wells microplate (collagen coated) at concentration of >9990 cells/30 μL per well in red phenol free MEM alpha medium (invitrogen) containing 5% charcoal dextran striped FBS. The following day, 9 points serial 1:5 dilution of each compound were added to the cells in 2.5 μL at final concentrations ranging from 3-0.000018 μM or 0.1 μM for fulvestrant (using as positive control). At 4 hours post compounds addition the cells were fixed by adding 25 μL of formalin (final concentration 5% formalin containing 0.1% triton) for 10 minutes at room temperature and then washed twice with PBS. Then, 50 μL of LI-COR blocking buffer containing 0.1% Triton was added to plate for 30 minutes at room temperature. LI-COR blocking buffer was removed and cells were incubated overnight at cold room with 50 μL anti-ER rabbit monoclonal antibody (Thermo scientific MA1-39540) diluted at 1:>999 in LI-COR blocking buffer containing 0.1% tween-20. […] Integrated intensities in the green fluorescence and red fluorescence were measured to determine the levels of ERα and DNA respectively.

DC50: 0.3 nM
SMILES: Oc1ccc(C2=C(c3ccc(O[C@H]4CCN(CCCF)C4)cc3)c3cc(O)ccc3CC2)cc1 [Example 2, 8-[4-[(3S)-1-(3-fluoropropyl)pyrrolidin-3-yl]oxyphenyl]-7-(4-hydroxyphenyl)-5,6-dihydronaphthalen-2-ol]
